Measurements reported in PubChem BioAssay AID1224830 (NIAID, 2016).

- Test: 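Genes whose knock-down alters the TNF-alpha reporter response to LPS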 (primary screen)
- Cell system: human THP-1 monocytic leukaemia cells, TNF dual-luciferase reporter clone, PMA-differentiated to macrophage-like cells
- Reagent: siRNA pool against human genes, 50 nM
- Duration: LPS for 4 h, given about 3 days after siRNA transfection
- Treatment: bacterial LPS (TLR4 ligand), 10 ng/ml
- Read-out: 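TNF firefly reporter luminescence divided by renilla, normalised to the plate median, then turned into a robust z-score for each replicate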
- Reading the numbers: TNF reporter robust z-score: higher = stronger TNF reporter response to LPS
- Call rule: 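Each well counts as active if its z-score is over 2.8 or under -1.5; controls are left without a call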
Here is one part, drawn at random, of about 18,000 reagents. Over the whole deposit, about 2,900 (16%) got an active call. 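Calls are made per well; low scores hint the gene aids the LPS response, high scores that it dampens it.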 Repeated entries: four replicate wells of each siRNA pool.

Target gene	TNF reporter robust z-score	activity call
PPP1R10 (protein phosphatase 1 regulatory subunit 10)	-2.17	active
PPP1R10 (protein phosphatase 1 regulatory subunit 10)	-2.09	active
PPP1R10 (protein phosphatase 1 regulatory subunit 10)	-2.24	active
PPP1R10 (protein phosphatase 1 regulatory subunit 10)	-1.95	active
GNE	1.12	inactive
GNE	-0.04	inactive
GNE	0.59	inactive
GNE	0.12	inactive
MXD1 (MAX dimerization protein 1)	0.23	inactive
MXD1 (MAX dimerization protein 1)	-0.1	inactive
MXD1 (MAX dimerization protein 1)	1.15	inactive
MXD1 (MAX dimerization protein 1)	0.25	inactive
ATOH1 (atonal bHLH transcription factor 1)	-0.72	inactive
ATOH1 (atonal bHLH transcription factor 1)	-0.47	inactive
ATOH1 (atonal bHLH transcription factor 1)	-0.08	inactive
ATOH1 (atonal bHLH transcription factor 1)	0.33	inactive
SEC63 (SEC63 protein translocation regulator)	-0.29	inactive
SEC63 (SEC63 protein translocation regulator)	-1.34	inactive
SEC63 (SEC63 protein translocation regulator)	-1.5	inactive
SEC63 (SEC63 protein translocation regulator)	-0.85	inactive
OR51D1 (olfactory receptor family 51 subfamily D member 1)	1.71	inactive
OR51D1 (olfactory receptor family 51 subfamily D member 1)	3.42	active
OR51D1 (olfactory receptor family 51 subfamily D member 1)	2.04	inactive
OR51D1 (olfactory receptor family 51 subfamily D member 1)	2.06	inactive
BZW2 (basic leucine zipper and W2 domains 2)	-1.41	inactive
BZW2 (basic leucine zipper and W2 domains 2)	1	inactive
BZW2 (basic leucine zipper and W2 domains 2)	0.62	inactive
BZW2 (basic leucine zipper and W2 domains 2)	0.83	inactive
PRPF38B (pre-mRNA processing factor 38B)	-1.4	inactive
PRPF38B (pre-mRNA processing factor 38B)	-0.66	inactive
PRPF38B (pre-mRNA processing factor 38B)	-0.78	inactive
PRPF38B (pre-mRNA processing factor 38B)	0.24	inactive
RBM28 (RNA binding motif protein 28)	0.03	inactive
RBM28 (RNA binding motif protein 28)	0.64	inactive
RBM28 (RNA binding motif protein 28)	0.71	inactive
RBM28 (RNA binding motif protein 28)	2.32	inactive
CRYAA (crystallin alpha A)	0.57	inactive
CRYAA (crystallin alpha A)	-0.96	inactive
CRYAA (crystallin alpha A)	-0.57	inactive
CRYAA (crystallin alpha A)	-0.54	inactive
HEATR9 (HEAT repeat containing 9)	0.9	inactive
HEATR9 (HEAT repeat containing 9)	1.13	inactive
HEATR9 (HEAT repeat containing 9)	-0.38	inactive
HEATR9 (HEAT repeat containing 9)	0.15	inactive
CSN1S1 (casein alpha s1)	-1.15	inactive
CSN1S1 (casein alpha s1)	0.13	inactive
CSN1S1 (casein alpha s1)	-0.67	inactive
CSN1S1 (casein alpha s1)	-0.84	inactive
NUP88 (nucleoporin 88)	0	inactive
NUP88 (nucleoporin 88)	0.16	inactive
NUP88 (nucleoporin 88)	0.66	inactive
NUP88 (nucleoporin 88)	0.77	inactive
TRIM68 (tripartite motif containing 68)	0.3	inactive
TRIM68 (tripartite motif containing 68)	-0.78	inactive
TRIM68 (tripartite motif containing 68)	-0.6	inactive
TRIM68 (tripartite motif containing 68)	0.52	inactive
DDX4 (DEAD-box helicase 4)	0.17	inactive
DDX4 (DEAD-box helicase 4)	-0.17	inactive
DDX4 (DEAD-box helicase 4)	0.15	inactive
DDX4 (DEAD-box helicase 4)	-0.35	inactive
SPRY4 (sprouty RTK signaling antagonist 4)	-0.39	inactive
SPRY4 (sprouty RTK signaling antagonist 4)	0.02	inactive
SPRY4 (sprouty RTK signaling antagonist 4)	0.41	inactive
SPRY4 (sprouty RTK signaling antagonist 4)	1.35	inactive
TMTC3 (transmembrane O-mannosyltransferase targeting cadherins 3)	-0.56	inactive
TMTC3 (transmembrane O-mannosyltransferase targeting cadherins 3)	0.08	inactive
TMTC3 (transmembrane O-mannosyltransferase targeting cadherins 3)	-0.08	inactive
TMTC3 (transmembrane O-mannosyltransferase targeting cadherins 3)	0.45	inactive
INTU (inturned planar cell polarity protein)	-0.24	inactive
INTU (inturned planar cell polarity protein)	1	inactive
INTU (inturned planar cell polarity protein)	0.87	inactive
INTU (inturned planar cell polarity protein)	2.9	active
HOXA2 (homeobox A2)	1.6	inactive
HOXA2 (homeobox A2)	0.71	inactive
HOXA2 (homeobox A2)	1.55	inactive
HOXA2 (homeobox A2)	1.01	inactive

24 entries already listed, ordered by “TNF reporter robust z-score”, lowest first.
Target gene	TNF reporter robust z-score	activity call
CSN1S1 (casein alpha s1)	-0.84	inactive
TRIM68 (tripartite motif containing 68)	-0.78	inactive
TRIM68 (tripartite motif containing 68)	-0.6	inactive
TMTC3 (transmembrane O-mannosyltransferase targeting cadherins 3)	-0.56	inactive
SPRY4 (sprouty RTK signaling antagonist 4)	-0.39	inactive
DDX4 (DEAD-box helicase 4)	-0.35	inactive
INTU (inturned planar cell polarity protein)	-0.24	inactive
DDX4 (DEAD-box helicase 4)	-0.17	inactive
TMTC3 (transmembrane O-mannosyltransferase targeting cadherins 3)	-0.08	inactive
NUP88 (nucleoporin 88)	0	inactive
SPRY4 (sprouty RTK signaling antagonist 4)	0.02	inactive
TMTC3 (transmembrane O-mannosyltransferase targeting cadherins 3)	0.08	inactive
DDX4 (DEAD-box helicase 4)	0.15	inactive
NUP88 (nucleoporin 88)	0.16	inactive
DDX4 (DEAD-box helicase 4)	0.17	inactive
TRIM68 (tripartite motif containing 68)	0.3	inactive
SPRY4 (sprouty RTK signaling antagonist 4)	0.41	inactive
TMTC3 (transmembrane O-mannosyltransferase targeting cadherins 3)	0.45	inactive
TRIM68 (tripartite motif containing 68)	0.52	inactive
NUP88 (nucleoporin 88)	0.66	inactive
NUP88 (nucleoporin 88)	0.77	inactive
INTU (inturned planar cell polarity protein)	0.87	inactive
INTU (inturned planar cell polarity protein)	1	inactive
SPRY4 (sprouty RTK signaling antagonist 4)	1.35	inactive

Further entries follow:
Target gene	TNF reporter robust z-score	activity call
RPL35A (ribosomal protein L35a)	-0.26	inactive
RPL35A (ribosomal protein L35a)	-0.66	inactive
RPL35A (ribosomal protein L35a)	0.03	inactive
RPL35A (ribosomal protein L35a)	-0.49	inactive
KCNB2 (potassium voltage-gated channel subfamily B member 2)	-0.4	inactive
KCNB2 (potassium voltage-gated channel subfamily B member 2)	-1.48	inactive
KCNB2 (potassium voltage-gated channel subfamily B member 2)	-1.47	inactive
KCNB2 (potassium voltage-gated channel subfamily B member 2)	-0.82	inactive
APOBEC1 (apolipoprotein B mRNA editing enzyme catalytic subunit 1)	0.34	inactive
APOBEC1 (apolipoprotein B mRNA editing enzyme catalytic subunit 1)	-0.6	inactive
APOBEC1 (apolipoprotein B mRNA editing enzyme catalytic subunit 1)	-0.8	inactive
APOBEC1 (apolipoprotein B mRNA editing enzyme catalytic subunit 1)	0.38	inactive
NAA15 (N-alpha-acetyltransferase 15, NatA auxiliary subunit)	1.38	inactive
NAA15 (N-alpha-acetyltransferase 15, NatA auxiliary subunit)	2.19	inactive
NAA15 (N-alpha-acetyltransferase 15, NatA auxiliary subunit)	1.04	inactive
NAA15 (N-alpha-acetyltransferase 15, NatA auxiliary subunit)	2.22	inactive
MRPL14 (mitochondrial ribosomal protein L14)	0.3	inactive
MRPL14 (mitochondrial ribosomal protein L14)	-0.43	inactive
MRPL14 (mitochondrial ribosomal protein L14)	-0.89	inactive
MRPL14 (mitochondrial ribosomal protein L14)	0.09	inactive
C19orf73 (chromosome 19 open reading frame 73)	2.38	inactive
C19orf73 (chromosome 19 open reading frame 73)	3.33	active
C19orf73 (chromosome 19 open reading frame 73)	1.18	inactive
C19orf73 (chromosome 19 open reading frame 73)	3.11	active
VCF2 (VCP nuclear cofactor family member 2)	-1.01	inactive
VCF2 (VCP nuclear cofactor family member 2)	-0.57	inactive
VCF2 (VCP nuclear cofactor family member 2)	-0.75	inactive
VCF2 (VCP nuclear cofactor family member 2)	-0.67	inactive
NUCKS1	-0.09	inactive
NUCKS1	-0.05	inactive
NUCKS1	1.55	inactive
PEX5L (peroxisomal biogenesis factor 5 like)	-0.58	inactive
PEX5L (peroxisomal biogenesis factor 5 like)	-0.05	inactive
PEX5L (peroxisomal biogenesis factor 5 like)	-0.03	inactive
PEX5L (peroxisomal biogenesis factor 5 like)	0.22	inactive
ADARB1 (adenosine deaminase RNA specific B1)	-1.09	inactive
ADARB1 (adenosine deaminase RNA specific B1)	-0.77	inactive
ADARB1 (adenosine deaminase RNA specific B1)	-1.39	inactive
ADARB1 (adenosine deaminase RNA specific B1)	-0.26	inactive
CRYM (crystallin mu)	0.26	inactive
CRYM (crystallin mu)	0.34	inactive
CRYM (crystallin mu)	-0.26	inactive
CRYM (crystallin mu)	1.17	inactive
NUTM2G (NUT family member 2G)	1.45	inactive
NUTM2G (NUT family member 2G)	1	inactive
NUTM2G (NUT family member 2G)	-0.25	inactive
NUTM2G (NUT family member 2G)	0.12	inactive
P2RY6 (pyrimidinergic receptor P2Y6)	-0.48	inactive
P2RY6 (pyrimidinergic receptor P2Y6)	-0.11	inactive
P2RY6 (pyrimidinergic receptor P2Y6)	-0.15	inactive
P2RY6 (pyrimidinergic receptor P2Y6)	-0.29	inactive
RSPRY1 (ring finger and SPRY domain containing 1)	-0.78	inactive
RSPRY1 (ring finger and SPRY domain containing 1)	3.48	active
RSPRY1 (ring finger and SPRY domain containing 1)	-1.43	inactive
RSPRY1 (ring finger and SPRY domain containing 1)	0.53	inactive
BIRC2 (baculoviral IAP repeat containing 2)	1.13	inactive
BIRC2 (baculoviral IAP repeat containing 2)	0.27	inactive
BIRC2 (baculoviral IAP repeat containing 2)	1.29	inactive
BIRC2 (baculoviral IAP repeat containing 2)	0.74	inactive
HPS5 (HPS5 biogenesis of lysosomal organelles complex 2 subunit 2)	-0.64	inactive
HPS5 (HPS5 biogenesis of lysosomal organelles complex 2 subunit 2)	0.57	inactive
HPS5 (HPS5 biogenesis of lysosomal organelles complex 2 subunit 2)	-0.12	inactive
HPS5 (HPS5 biogenesis of lysosomal organelles complex 2 subunit 2)	0.45	inactive
INVS (inversin)	0.58	inactive
INVS (inversin)	0.14	inactive
INVS (inversin)	0.09	inactive
INVS (inversin)	-0.34	inactive
